Test results published in patent US20120237518A1.
These are yes or no findings as the source states them, for the method shown.

How the values were obtained:
[1] = target: Mutant A, Trop-2 extracellular region lacking only domain I, fused to FLAG tag and Fc (human); experiment: Western blot, KM4590 as primary antibody, Mutant A in lane 2 [a]
[2] = target: Mutant B, Trop-2 extracellular region lacking domain I and domain II, fused to FLAG tag and Fc (human); experiment: Western blot, KM4590 as primary antibody, Mutant B in lane 3, non-reducing and reducing [a]
[3] = target: Mutant C, Trop-2 extracellular region lacking full length of domain I and domain II and part of domain III, fused to FLAG tag and Fc (human); experiment: Western blot, cAR47A6.4.2 as primary antibody, Mutant C in lane 4, non-reducing and reducing [b]

Row | binding [1] | binding [2] | binding [3] | Binder
1 | no binding | no binding |  | anti-Trop-2 human chimeric antibody KM4590 (antibody, human IgG1, V domains shown) VH: QVQLQQSGPELVRPGTSVRISCKASGYTFTIYWLGWVKQRPGHGLEWIGNIFPGSAYINYNEKFKGKATLTADTSSSTAYMQLSSLTSEDSAVYFCAREGSNSGYWGQGTTLTVSS VL: DIVMTQSPSSLSVSAGEKVTMTCKSSQSLLNSGNQQNYLAWYQQKPGQPPKLLIYGASTRESGVPDRFTGSGSGTDFTLTINSVQAEDLAVYYCQSDHIYPYTFGGGTKLEIK
2 |  |  | no binding | cAR47A6.4.2, human IgG1 chimeric antibody of anti-Trop-2 mouse monoclonal antibody AR47A6.4.2 (antibody, V domains shown) VH: QIQLVQSGPELKKPGETVKISCKASGYTFTNYGMNWVKQAPGKGLKWMGWINTKTGEPTYAEEFKGRFAFSLETSASTAYLQINNLKKEDTATYFCGRGGYGSSYWYFDVWGAGTTVTVSS VL: DIVMTQSHKFMSTSVGDRVSITCKASQDVSIAVAWYQQKPGQSPKVLIYSASYRYTGVPDRFTGSGSGTDFTFTISRVQAEDLAVYYCQQHYITPLTFGAGTKLELK
